The values below come from paper PMC2734569, “Functional mapping of the fission yeast DNA polymerase δ B-subunit Cdc1 by site-directed and random pentapeptide insertion mutagenesis” (BMC Molecular Biology, 2009).

These are yes or no findings as the source states them, for the method shown. Where a sequence is shown, tags or fusion partners need not be part of it.

One assay deals with T1, Cdc1-J21 (Schizosaccharomyces pombe, UniProt P87324 1-462, Leu-GlyValProGlnLeu-Asp).
T1 construct: Cdc1, S. pombe, with a pentapeptide inserted after residue 275; source: yeast two-hybrid fusion, in S. cerevisiae CTY10-5d
T1 sequence (looked up): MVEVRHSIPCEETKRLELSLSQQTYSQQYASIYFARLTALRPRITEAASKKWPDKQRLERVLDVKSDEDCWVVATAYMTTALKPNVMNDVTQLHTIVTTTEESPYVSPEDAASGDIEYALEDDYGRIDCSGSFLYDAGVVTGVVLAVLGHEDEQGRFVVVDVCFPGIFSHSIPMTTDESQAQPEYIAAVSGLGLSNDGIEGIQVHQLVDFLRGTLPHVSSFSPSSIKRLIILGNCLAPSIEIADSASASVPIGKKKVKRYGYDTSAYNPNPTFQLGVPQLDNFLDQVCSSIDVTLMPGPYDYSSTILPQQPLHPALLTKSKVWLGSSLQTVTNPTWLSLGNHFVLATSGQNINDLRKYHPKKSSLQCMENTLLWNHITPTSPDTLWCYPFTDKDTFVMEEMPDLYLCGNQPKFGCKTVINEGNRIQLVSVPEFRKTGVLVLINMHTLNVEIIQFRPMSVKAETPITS
Kind of assay: two-hybrid; LexA-Cdc1 bait (pBTM116 or pBTM116BN) with Gal4-Pol3 prey and co-expressed c-myc-tagged Cdc27 (pAA-Cdc27) in S. cerevisiae CTY10-5d; ONPG liquid culture beta-galactosidase assay, mean of triplicates, as percent of wild-type Cdc1.

Another assay deals with T2, Cdc1-A3 (Schizosaccharomyces pombe, UniProt P87324 1-462, Asp296Ala).
T2 construct: Cdc1, S. pombe, point mutant; source: yeast two-hybrid fusion, in S. cerevisiae CTY10-5d
T2 sequence (looked up): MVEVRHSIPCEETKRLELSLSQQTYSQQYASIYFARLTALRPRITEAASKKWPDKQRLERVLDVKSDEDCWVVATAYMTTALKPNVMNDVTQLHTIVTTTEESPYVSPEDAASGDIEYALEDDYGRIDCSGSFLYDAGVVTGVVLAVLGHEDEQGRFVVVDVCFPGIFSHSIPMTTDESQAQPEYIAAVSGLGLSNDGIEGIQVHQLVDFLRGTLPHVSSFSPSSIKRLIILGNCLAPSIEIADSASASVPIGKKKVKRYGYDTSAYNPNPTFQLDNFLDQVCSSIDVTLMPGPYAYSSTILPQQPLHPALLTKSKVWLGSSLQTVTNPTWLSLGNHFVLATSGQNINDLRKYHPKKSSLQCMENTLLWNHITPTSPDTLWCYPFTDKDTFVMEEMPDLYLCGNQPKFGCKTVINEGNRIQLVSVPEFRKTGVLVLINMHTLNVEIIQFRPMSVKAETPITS
Described as above.

B1: Pol3 (fission yeast DNA polymerase delta catalytic subunit) (natural protein, Schizosaccharomyces pombe, UniProt P30316 1-1086, looked up)
chain: MTDRSSNEGVVLNKENYPFPRRNGSIHGEITDVKRRRLSERNGYGDKKGSSSKEKTSSFEDELAEYASQLDQDEIKSSKDQQWQRPALPAINPEKDDIYFQQIDSEEFTEGSVPSIRLFGVTDNGNSILVHVVGFLPYFYVKAPVGFRPEMLERFTQDLDATCNGGVIDHCIIEMKENLYGFQGNEKSPFIKIFTTNPRILSRARNVFERGEFNFEELFPVGVGVTTFESNTQYLLRFMIDCDVVGMNWIHLPASKYQFRYQNRVSNCQIEAWINYKDLISLPAEGQWSKMAPLRIMSFDIECAGRKGVFPDPSIDPVIQIASIVTQYGDSTPFVRNVFCVDTCSQIVGTQVYEFQNQAEMLSSWSKFVRDVDPDVLIGYNICNFDIPYLLDRAKSLRIHNFPLLGRIHNFFSVAKETTFSSKAYGTRESKTTSIPGRLQLDMLQVMQRDFKLRSYSLNAVCSQFLGEQKEDVHYSIITDLQNGTADSRRRLAIYCLKDAYLPQRLMDKLMCFVNYTEMARVTGVPFNFLLARGQQIKVISQLFRKALQHDLVVPNIRVNGTDEQYEGATVIEPIKGYYDTPIATLDFSSLYPSIMQAHNLCYTTLLDSNTAELLKLKQDVDYSVTPNGDYFVKPHVRKGLLPIILADLLNARKKAKADLKKETDPFKKAVLDGRQLALKVSANSVYGFTGATNGRLPCLAISSSVTSYGRQMIEKTKDVVEKRYRIENGYSHDAVVIYGDTDSVMVKFGVKTLPEAMKLGEEAANYVSDQFPNPIKLEFEKVYFPYLLISKKRYAGLFWTRTDTYDKMDSKGIETVRRDNCPLVSYVIDTALRKMLIDQDVEGAQLFTKKVISDLLQNKIDMSQLVITKALSKTDYAAKMAHVELAERMRKRDAGSAPAIGDRVAYVIIKGAQGDQFYMRSEDPIYVLENNIPIDAKYYLENQLSKPLLRIFEPILGEKASSLLHGDHTRTISMAAPSVGGIMKFAVKVETCLGCKAPIKKGKTALCENCLNRSAELYQRQVAQVNDLEVRFARLWTQCQRCQGSMHQDVICTSRDCPIFYMRIAEHKKLQQSVDLLKRFDEMSW
notes: DNA polymerase delta catalytic subunit Pol3, S. pombe; prey plasmid named pACT-Pol3 in the results and pGAD2F-Pol3 in the methods; also called Gal4-Pol3; pACT-Pol3; source: yeast two-hybrid fusion, in S. cerevisiae CTY10-5d
In the case of B1, the binding entry with Cdc1-J21 is on record as “no binding (tested: <1% of wild type (Table 1))”; with Cdc1-A3 it was “no binding (tested: <1% of wild type)”.
